PubChem BioAssay AID1259289 | Sanger Institute | 2017
In all, the deposit lists 794 reagents; shown is a random part of them. 16 of them (2%) were called active. 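Active marks cell loss from silencing alone; drug synergy shows only in the synergy scores, not the calls.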 Entries without a mark were called inactive. Viability is capped at 1. Further read-outs or replicates are left out here. The record does not give: the amount of reagent, the time to read-out.

Purpose: 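Kinase-wide silencing tested with three anchor drugs to reveal synergistic lethal pairs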 (primary screen)
System: human LS513 colorectal cancer cells
Reagents: siRNA pool against human genes
Treatment: anchor drug BYL719 at 1 µM, cetuximab at 5 µg/ml or trametinib at 10 nM, or DMSO vehicle alone; exposure time not given
Measured: 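Cell survival as a fraction of the non-targeting pool, replicate means; robust z-score for silencing alone under DMSO; synergy score for each of BYL719, cetuximab and trametinib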
Scale: robust z-score, siRNA alone (DMSO): higher = more viable cells; strongly negative means essential; viability with DMSO vs control: higher = more viable cells
Units: viability with DMSO vs control in fraction of control
Call rule: 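a gene counts as active if its DMSO-only robust z-score falls under -3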
Meaning of the calls: active = essential (knock-down alone); inactive = not essential

{"gene knocked down": "PIM1 (GeneID 5292)", "robust z-score, siRNA alone (DMSO)": -0.593, "viability with DMSO vs control": 0.836}
{"gene knocked down": "CDC73 (GeneID 79577)", "robust z-score, siRNA alone (DMSO)": -1.45, "viability with DMSO vs control": 0.714}
{"gene knocked down": "IGF1R (GeneID 3480)", "robust z-score, siRNA alone (DMSO)": 0.561, "viability with DMSO vs control": 1}
{"gene knocked down": "CDKN1B (GeneID 1027)", "robust z-score, siRNA alone (DMSO)": -0.255, "viability with DMSO vs control": 0.884}
{"gene knocked down": "NUP107 (GeneID 57122)", "robust z-score, siRNA alone (DMSO)": "-4.21 (active)", "viability with DMSO vs control": 0.323}
{"gene knocked down": "CLK2 (GeneID 1196)", "robust z-score, siRNA alone (DMSO)": 0.561, "viability with DMSO vs control": 1}
{"gene knocked down": "NUP98 (GeneID 4928)", "robust z-score, siRNA alone (DMSO)": -2.42, "viability with DMSO vs control": 0.577}
{"gene knocked down": "MAP2K3 (GeneID 5606)", "robust z-score, siRNA alone (DMSO)": 0.561, "viability with DMSO vs control": 1}
{"gene knocked down": "ITPKC (GeneID 80271)", "robust z-score, siRNA alone (DMSO)": 0.191, "viability with DMSO vs control": 0.947}
{"gene knocked down": "LMBR1 (GeneID 64327)", "robust z-score, siRNA alone (DMSO)": 0.561, "viability with DMSO vs control": 1}
{"gene knocked down": "GNAS (GeneID 2778)", "robust z-score, siRNA alone (DMSO)": -2, "viability with DMSO vs control": 0.637}
{"gene knocked down": "CDK1 (GeneID 983)", "robust z-score, siRNA alone (DMSO)": 0.561, "viability with DMSO vs control": 1}
{"gene knocked down": "EPHB1 (GeneID 2047)", "robust z-score, siRNA alone (DMSO)": 0.561, "viability with DMSO vs control": 1}
{"gene knocked down": "PRKAR2B (GeneID 5577)", "robust z-score, siRNA alone (DMSO)": -2.37, "viability with DMSO vs control": 0.584}
{"gene knocked down": "ABL1 (GeneID 25)", "robust z-score, siRNA alone (DMSO)": 0.561, "viability with DMSO vs control": 1}
{"gene knocked down": "RBKS (GeneID 64080)", "robust z-score, siRNA alone (DMSO)": 0.561, "viability with DMSO vs control": 1}
{"gene knocked down": "MAST1 (GeneID 22983)", "robust z-score, siRNA alone (DMSO)": 0.561, "viability with DMSO vs control": 1}
{"gene knocked down": "PRKCI (GeneID 5584)", "robust z-score, siRNA alone (DMSO)": 0.561, "viability with DMSO vs control": 1}
{"gene knocked down": "NME6 (GeneID 10201)", "robust z-score, siRNA alone (DMSO)": -2.26, "viability with DMSO vs control": 0.599}
{"gene knocked down": "MAPK7 (GeneID 5598)", "robust z-score, siRNA alone (DMSO)": 0.561, "viability with DMSO vs control": 1}
{"gene knocked down": "TRIO (GeneID 7204)", "robust z-score, siRNA alone (DMSO)": 0.561, "viability with DMSO vs control": 1}
{"gene knocked down": "RIPK1 (GeneID 8737)", "robust z-score, siRNA alone (DMSO)": -0.399, "viability with DMSO vs control": 0.864}
{"gene knocked down": "CHUK (GeneID 1147)", "robust z-score, siRNA alone (DMSO)": 0.561, "viability with DMSO vs control": 1}
{"gene knocked down": "AK7 (GeneID 122481)", "robust z-score, siRNA alone (DMSO)": 0.264, "viability with DMSO vs control": 0.958}
{"gene knocked down": "NEK11 (GeneID 79858)", "robust z-score, siRNA alone (DMSO)": 0.561, "viability with DMSO vs control": 1}
{"gene knocked down": "PAK4 (GeneID 10298)", "robust z-score, siRNA alone (DMSO)": 0.561, "viability with DMSO vs control": 1}
{"gene knocked down": "PXK (GeneID 54899)", "robust z-score, siRNA alone (DMSO)": -0.904, "viability with DMSO vs control": 0.792}
{"gene knocked down": "MAP2K5 (GeneID 5607)", "robust z-score, siRNA alone (DMSO)": 0.561, "viability with DMSO vs control": 1}
{"gene knocked down": "CDK9 (GeneID 1025)", "robust z-score, siRNA alone (DMSO)": -0.0413, "viability with DMSO vs control": 0.915}
{"gene knocked down": "EEF2K (GeneID 29904)", "robust z-score, siRNA alone (DMSO)": 0.561, "viability with DMSO vs control": 1}
{"gene knocked down": "PSKH1 (GeneID 5681)", "robust z-score, siRNA alone (DMSO)": 0.561, "viability with DMSO vs control": 1}
{"gene knocked down": "DUSP21 (GeneID 63904)", "robust z-score, siRNA alone (DMSO)": 0.561, "viability with DMSO vs control": 1}
{"gene knocked down": "PLK4 (GeneID 10733)", "robust z-score, siRNA alone (DMSO)": 0.561, "viability with DMSO vs control": 1}
{"gene knocked down": "MKNK1 (GeneID 8569)", "robust z-score, siRNA alone (DMSO)": 0.561, "viability with DMSO vs control": 1}
{"gene knocked down": "NUCKS1 (GeneID 64710)", "robust z-score, siRNA alone (DMSO)": 0.561, "viability with DMSO vs control": 1}
{"gene knocked down": "FYN (GeneID 2534)", "robust z-score, siRNA alone (DMSO)": 0.561, "viability with DMSO vs control": 1}

Reformatted: 6 of the entries above.
gene knocked down,"robust z-score, siRNA alone (DMSO)",viability with DMSO vs control
CDK1 (GeneID 983),0.561,1
EPHB1 (GeneID 2047),0.561,1
PRKAR2B (GeneID 5577),-2.37,0.584
ABL1 (GeneID 25),0.561,1
RBKS (GeneID 64080),0.561,1
MAST1 (GeneID 22983),0.561,1
